Results: PubChem BioAssay AID328 (DTP/NCI, 2004)
The list does not hold the whole screen: it gathers tests that were run many times, whatever their T/C, doses with no T/C, and many T/C values between a quarter and a half above the control. Other doses and runs of a compound stand elsewhere. T/C gives the treated animals as a percentage of the vehicle group. Some doses have a count of surviving animals in place of a T/C: the source files T/C as zero there, which appears to mark a toxic dose or a test without result, not a measured value. Some survivor counts are full or nearly so, which does not show that the dose was tolerated: survival well below the control is almost never listed, so the zero probably covers shortened survival too. Counts of survivors are from the toxicity check (mostly the fifth day) where no day follows; animals may have died later. Schedule codes are those of the source, taken here to give the interval after Q, in days (D) or hours (H), and the number of doses after X. Some structures stand for samples that the source files as different forms (salt, stereo form or complex); doses refer to the form tested. Some entries were tested several times; their values stand side by side, smallest first. For survival time, the PubChem record calls one and a half times the control and up active, and a quarter to a half above the control has no call in these data; cut-offs in other NCI protocols can differ. Some T/C values carry the count of animals alive at the toxicity check (mostly the fifth day); where none is given, no animal had died by that day. Signs of the kind (2×) say how often a value occurs here.

System: BDF1 mice, P388 leukemia ip, median survival T/C
Experiment: NCI In Vivo Anticancer Drug Screen. Data for tumor model P388 Leukemia (intraperitoneal) in B6D2F1 (BDF1) mice
Conditions: T/C endpoint: median survival time, higher T/C = longer survival
Method in brief: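 Antitumour effect was judged in vivo: survival in drug-treated mice, normalised to that of vehicle-dosed controls, gives the reported T/C.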

[1] = dose: 50.0 mg/kg/injection, schedule: Q01DX009 (ip), vehicle: saline with Tween-80
[2] = dose: 100.0 mg/kg/injection, schedule: Q01DX009 (ip), vehicle: saline with Tween-80
[3] = dose: 200.0 mg/kg/injection, schedule: Q01DX009 (ip), vehicle: saline with Tween-80
[4] = dose: 120.0 mg/kg/injection, schedule: Q01DX010 (ip), vehicle: saline
[5] = dose: 400.0 mg/kg/injection, schedule: Q04DX003 (ip), vehicle: saline
[6] = dose: 32.0 mg/kg/injection, schedule: Q01DX010 (ip), vehicle: saline

CCCCCCCCCCC[N+](C)(C)CC(O)C[N+](C)(C)CCCCCCCCCCC was tested, and the survivor count [1] was 0 of 6, the survivor count [2] was 0 of 6 and the survivor count [3] was 0 of 6.

In the case of CCOC(=O)c1ccc(C(=O)OCC)c(Cl)n1, the survivor count (dose: 200.0 mg/kg/injection, schedule: Q04DX003 (ip), vehicle: Klucel (hydroxypropylcellulose) (HPC)) is reported as 6 of 6 and the survivor count (dose: 400.0 mg/kg/injection, schedule: Q04DX003 (ip), vehicle: Klucel (hydroxypropylcellulose) (HPC)) is reported as 6 of 6.

In the case of COC(=O)Nc1cccc(NC(=O)C(=O)O)c1, the survivor count (dose: 200.0 mg/kg/injection, schedule: Q04DX003 (ip), vehicle: saline with Tween-80) is reported as 3 of 6.

C/C=C1\CN(C)[C@H]2Cc3c([nH]c4ccccc34)[C@@H](c3cc4[nH]c5c(c4cc3OC)CCN3C[C@H]4C[C@H](CC)[C@H]3[C@@]5(C(=O)OC)C4)C[C@H]1C2C(=O)OC (stereo partly specified) was tested, and the survivor count (dose: 15.0 mg/kg/injection, schedule: Q01DX010 (ip), vehicle: water) was 5 of 6, the survivor count (dose: 20.0 mg/kg/injection, schedule: Q01DX010 (ip), vehicle: water) was 1 of 6 and the survivor count (dose: 40.0 mg/kg/injection, schedule: Q01DX010 (ip), vehicle: water) was 6 of 6. For the same molecule, the survivor count (dose: 60.0 mg/kg/injection, schedule: Q01DX010 (ip), vehicle: water) was 1 of 6.

O=C1CN(CCN2CC(=O)NC(=O)C2)CC(=O)N1 was tested, and the T/C (dose: 50.0 mg/kg/injection, schedule: Q01DX009 (ip), vehicle: steroid suspending solution) was 141 % of control, the T/C [4] was 138 % of control and the survivor count [4] was 6 of 6. For the same molecule, the survivor count (dose: 240.0 mg/kg/injection, schedule: Q01DX010 (ip), vehicle: saline) was 3 of 6 and 6 of 6 and the T/C (dose: 400.0 mg/kg/injection, schedule: Q04DX003 (ip), vehicle: steroid suspending solution) was 129 % of control.

Cc1ccc(C(=O)C2CC2)c(C)c1 was tested, and the T/C [2] was 125 % of control, the T/C [3] was 135 % of control and the T/C (dose: 400.0 mg/kg/injection, schedule: Q01DX009 (ip), vehicle: saline with Tween-80) was 135 % of control [4 of 6 alive].

With COc1ccc2c(c1)CC1NCCc3cc4c(c-2c31)OCO4 (stereo unspecified) the survivor count [3] was 0 of 6.

With C=CC(C)(C)c1cc2cc3c(cc2oc1=O)OC(C(C)(C)OC(C)=O)C3 (stereo unspecified) the survivor count [5] was 5 of 6.

In the case of CCOS(C)(=O)=O, the survivor count (dose: 200.0 mg/kg/injection, schedule: Q01DX009 (ip), vehicle: saline) is reported as 6 of 6 and the survivor count [5] is reported as 2 of 6.

With O=C(Nc1ccc([N+](=O)[O-])cc1)OCC#CC#CCOC(=O)Nc1ccc([N+](=O)[O-])cc1 the survivor count (dose: 200.0 mg/kg/injection, schedule: Q01DX009 (ip), vehicle: Klucel (hydroxypropylcellulose) (HPC)) was 3 of 6.

Cc1ccc(N=NN(C)C)cc1 was tested, and the T/C (dose: 75.0 mg/kg/injection, schedule: Q01DX009 (ip), vehicle: saline with Tween-80) was 125 % of control.

With COc1cc(C=Nc2cccc(F)c2)ccc1N(CCCl)CCCl the survivor count (dose: 25.0 mg/kg/injection, schedule: Q01DX009 (ip), vehicle: other) was 6 of 6, the survivor count (dose: 50.0 mg/kg/injection, schedule: Q01DX009 (ip), vehicle: other) was 0 of 6 and the survivor count (dose: 100.0 mg/kg/injection, schedule: Q01DX009 (ip), vehicle: other) was 0 of 6.

O=C(Nc1ccc(C2=NCCN2)cc1)c1ccc(C(=O)Nc2ccc(C3=NCCN3)cc2)c(Cl)c1 was tested, and the T/C (dose: 2.0 mg/kg/injection, schedule: Q01DX010 (ip), vehicle: water) was 123, 133, 141 (5×), 145 (2×), 150, 154 (3×), 162, 163 (4×), 168 (2×), 170 (2×), 172, 177, 180, 188 % of control, the T/C (dose: 4.0 mg/kg/injection, schedule: Q01DX010 (ip), vehicle: saline) was 127, 138, 160, 170 % of control and the T/C (dose: 4.0 mg/kg/injection, schedule: Q01DX010 (ip), vehicle: water) was 100, 146 (2×), 150, 154, 158, 163 (2×), 166, 168, 172 (3×), 173, 175 (3×), 177, 180, 181 (4×), 181 [5 of 6 alive], 190 (3×), 192, 195 (2×), 196, 200 (2×), 204, 205, 209, 245 % of control (2×). For the same molecule, the T/C (dose: 8.0 mg/kg/injection, schedule: Q01DX010 (ip), vehicle: saline) was 161, 175, 190, 195 % of control, the T/C (dose: 8.0 mg/kg/injection, schedule: Q01DX010 (ip), vehicle: water) was 145 % of control and the T/C (dose: 12.0 mg/kg/injection, schedule: Q01DX010 (ip), vehicle: water) was 145 % of control. For the same molecule, the T/C (dose: 16.0 mg/kg/injection, schedule: Q01DX010 (ip), vehicle: saline) was 176, 190, 205, 220 % of control, the T/C (dose: 16.0 mg/kg/injection, schedule: Q01DX010 (ip), vehicle: water, evaluated on day 30, list 1 of 2) was 191, 192, 207, 208 [5 of 6 alive], 212, 218, 220, 222 (2×), 225, 227, 229, 230, 231, 233 (2×), 236, 245 (2×), 250 (2×), 254, 259, 260, 270, 272 (3×), 275, 285, 333 % of control and the T/C (dose: 16.0 mg/kg/injection, schedule: Q01DX010 (ip), vehicle: water, evaluated on day 30, list 2 of 2) was 184, 191, 200, 208 (2×), 214, 218, 222 (2×), 223, 225 [5 of 6 alive], 227, 229, 230 (2×), 231, 233, 236 (2×), 245, 250 (3×), 254, 259, 260, 272 (4×), 285, 300 % of control. The survivor count (dose: 16.0 mg/kg/injection, schedule: Q01DX010 (ip), vehicle: water) was 6 of 6, the T/C (dose: 16.0 mg/kg/injection, schedule: Q01DX010 (ip), vehicle: water, run until all animals had died) was 150 and 180 % of control (2×) and the T/C (dose: 20.0 mg/kg/injection, schedule: Q01DX010 (ip), vehicle: water, evaluated on day 30) was 212 and 250 % of control. For the same molecule, the T/C (dose: 20.0 mg/kg/injection, schedule: Q01DX010 (ip), vehicle: water, run until all animals had died) was 131, 200, 210 % of control, the T/C [6] was 140, 210, 247 % of control [5 of 6 alive] and the survivor count [6] was 3 of 6. The survivor count [1] was 6 of 6.

With CCN=C(N)N=C(N)N the survivor count (dose: 200.0 mg/kg/injection, schedule: Q01DX001 (ip), vehicle: saline) was 0 of 6 and the survivor count (dose: 400.0 mg/kg/injection, schedule: Q01DX001 (ip), vehicle: saline) was 0 of 6.

Cc1cc(-c2ccccc2)nnc1NCCN1CCOCC1 was tested, and the survivor count [1] was 2 of 6, the survivor count [2] was 0 of 6 and the survivor count [3] was 0 of 6.

[Cl][Pt+2][Cl].[NH-]C1CCCC1.[NH-]C1CCCC1 was tested, and the T/C (dose: 160.0 mg/kg/injection, schedule: Q01DX009 (ip), vehicle: Klucel (hydroxypropylcellulose) (HPC)) was 127 % of control.

Clc1cc(CBr)c(Cl)c(Cl)c1CBr was tested, and the T/C (dose: 6.25 mg/kg/injection, schedule: Q01DX009 (ip), vehicle: saline with Tween-80) was 127 % of control, the T/C (dose: 12.5 mg/kg/injection, schedule: Q01DX009 (ip), vehicle: saline with Tween-80) was 127 % of control and the survivor count (dose: 25.0 mg/kg/injection, schedule: Q01DX009 (ip), vehicle: Klucel (hydroxypropylcellulose) (HPC)) was 2 of 6. The T/C (dose: 25.0 mg/kg/injection, schedule: Q01DX009 (ip), vehicle: saline with Tween-80) was 127 % of control.

In the case of CNCCSS(=O)(=O)CCNC, the survivor count (dose: 50.0 mg/kg/injection, schedule: Q01DX005 (ip), vehicle: saline) is reported as 5 of 5 and the survivor count (dose: 200.0 mg/kg/injection, schedule: Q01DX005 (ip), vehicle: saline) is reported as 5 of 5.

O=C1N2CCOC2=NC1(c1ccccc1)c1ccccc1 was tested, and the survivor count (dose: 200.0 mg/kg/injection, schedule: Q01DX009 (ip), vehicle: water) was 9 of 10.

In the case of COc1ccc2c(Cl)cc(NC(=O)Nc3c(C)cccc3C)nc2c1, the survivor count [1] is reported as 6 of 6 and the survivor count [3] is reported as 5 of 6.

With Cc1cc(O)c2c(c1O)C(=O)C13C(=C2O)C(=O)C2C(O)C1C1C(O)C3C(=O)C3=C(O)c4c(O)cc(C)c(O)c4C(=O)C321 (stereo unspecified) the T/C (dose: 5.56 mg/kg/injection, schedule: Q04DX003 (ip), vehicle: saline with Tween-80) was 131 % of control, the T/C (dose: 6.0 mg/kg/injection, schedule: Q04DX003 (ip), vehicle: saline with Tween-80) was 127 % of control and the T/C (dose: 6.25 mg/kg/injection, schedule: Q04DX003 (ip), vehicle: saline with Tween-80) was 125 % of control. The T/C (dose: 8.33 mg/kg/injection, schedule: Q04DX003 (ip), vehicle: saline with Tween-80) was 136 % of control, the T/C (dose: 9.0 mg/kg/injection, schedule: Q04DX003 (ip), vehicle: saline with Tween-80) was 127 % of control and the T/C (dose: 12.5 mg/kg/injection, schedule: Q04DX003 (ip), vehicle: saline with Tween-80) was 140 and 145 % of control. For the same molecule, the T/C (dose: 18.7 mg/kg/injection, schedule: Q04DX003 (ip), vehicle: saline with Tween-80) was 131 % of control and the survivor count (dose: 25.0 mg/kg/injection, schedule: Q04DX003 (ip), vehicle: saline with Tween-80) was 5 of 6.
